Laboratory results published in paper PMC4792956.

Amino acid sequences for entries named in this document (tags omitted).
UniProt Q9V3Z6: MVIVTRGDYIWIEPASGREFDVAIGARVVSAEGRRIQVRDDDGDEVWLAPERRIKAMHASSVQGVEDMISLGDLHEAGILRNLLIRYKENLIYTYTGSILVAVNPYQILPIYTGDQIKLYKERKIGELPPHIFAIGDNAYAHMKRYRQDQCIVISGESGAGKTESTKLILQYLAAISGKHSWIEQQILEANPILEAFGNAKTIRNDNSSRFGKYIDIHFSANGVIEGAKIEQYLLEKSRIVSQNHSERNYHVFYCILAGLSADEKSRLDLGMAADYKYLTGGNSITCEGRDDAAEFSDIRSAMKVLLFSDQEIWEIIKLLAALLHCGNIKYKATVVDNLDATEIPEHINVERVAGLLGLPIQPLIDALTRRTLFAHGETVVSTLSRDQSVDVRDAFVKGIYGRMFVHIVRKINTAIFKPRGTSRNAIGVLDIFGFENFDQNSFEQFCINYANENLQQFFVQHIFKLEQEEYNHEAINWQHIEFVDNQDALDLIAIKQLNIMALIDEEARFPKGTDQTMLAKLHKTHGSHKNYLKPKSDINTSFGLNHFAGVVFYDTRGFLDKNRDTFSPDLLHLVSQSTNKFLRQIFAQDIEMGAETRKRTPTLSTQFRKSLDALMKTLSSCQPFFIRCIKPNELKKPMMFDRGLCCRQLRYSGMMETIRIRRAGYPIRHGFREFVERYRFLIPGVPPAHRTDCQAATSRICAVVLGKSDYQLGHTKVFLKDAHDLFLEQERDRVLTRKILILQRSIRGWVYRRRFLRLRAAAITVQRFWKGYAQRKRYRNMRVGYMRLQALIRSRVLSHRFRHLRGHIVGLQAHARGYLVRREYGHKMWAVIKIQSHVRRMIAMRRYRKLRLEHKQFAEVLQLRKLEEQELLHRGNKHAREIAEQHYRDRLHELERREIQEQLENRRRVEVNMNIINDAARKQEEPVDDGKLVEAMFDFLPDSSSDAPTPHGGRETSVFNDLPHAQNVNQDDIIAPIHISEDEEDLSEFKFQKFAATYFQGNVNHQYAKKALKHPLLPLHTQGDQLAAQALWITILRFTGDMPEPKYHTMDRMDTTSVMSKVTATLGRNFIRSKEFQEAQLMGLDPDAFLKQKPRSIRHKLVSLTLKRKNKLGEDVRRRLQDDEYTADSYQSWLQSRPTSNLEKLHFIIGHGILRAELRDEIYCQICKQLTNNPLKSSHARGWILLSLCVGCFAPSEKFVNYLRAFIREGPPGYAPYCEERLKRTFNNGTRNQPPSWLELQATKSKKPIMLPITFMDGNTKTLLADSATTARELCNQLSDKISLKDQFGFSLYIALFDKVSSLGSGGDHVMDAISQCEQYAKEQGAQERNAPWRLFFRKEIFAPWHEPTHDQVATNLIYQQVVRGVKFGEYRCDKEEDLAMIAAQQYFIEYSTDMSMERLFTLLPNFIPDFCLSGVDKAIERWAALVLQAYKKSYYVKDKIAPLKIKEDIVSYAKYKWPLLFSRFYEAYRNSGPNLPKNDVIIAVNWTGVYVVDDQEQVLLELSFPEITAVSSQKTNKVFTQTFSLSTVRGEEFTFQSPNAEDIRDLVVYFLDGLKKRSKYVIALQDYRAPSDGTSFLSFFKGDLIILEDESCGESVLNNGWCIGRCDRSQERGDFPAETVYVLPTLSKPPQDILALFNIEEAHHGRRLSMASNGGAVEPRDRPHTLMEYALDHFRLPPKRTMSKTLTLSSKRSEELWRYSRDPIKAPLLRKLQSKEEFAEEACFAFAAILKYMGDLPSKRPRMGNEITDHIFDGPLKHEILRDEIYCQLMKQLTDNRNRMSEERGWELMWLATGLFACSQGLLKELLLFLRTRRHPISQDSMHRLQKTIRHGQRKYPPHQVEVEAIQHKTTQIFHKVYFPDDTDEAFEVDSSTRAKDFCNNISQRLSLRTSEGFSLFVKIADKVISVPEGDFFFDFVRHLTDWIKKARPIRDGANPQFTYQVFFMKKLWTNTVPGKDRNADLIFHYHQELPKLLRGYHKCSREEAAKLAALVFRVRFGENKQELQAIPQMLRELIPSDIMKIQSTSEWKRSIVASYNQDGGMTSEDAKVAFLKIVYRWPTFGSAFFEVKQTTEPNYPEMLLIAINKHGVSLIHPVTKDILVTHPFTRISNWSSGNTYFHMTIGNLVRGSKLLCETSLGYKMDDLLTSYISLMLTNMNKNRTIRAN

Columns and labels:
Assay in all cases: affinity purification with mass spectrometry; HA3x-tagged baits stably expressed in Drosophila S2 cells; large-scale affinity purification on α-HA resin, mass spectrometric analysis; minimum score of two unique peptides
HA3x-tagged DIAP1 = molecular target: T1, HA3x-tagged DIAP1 (UniProt Q24306)
T1 sequence: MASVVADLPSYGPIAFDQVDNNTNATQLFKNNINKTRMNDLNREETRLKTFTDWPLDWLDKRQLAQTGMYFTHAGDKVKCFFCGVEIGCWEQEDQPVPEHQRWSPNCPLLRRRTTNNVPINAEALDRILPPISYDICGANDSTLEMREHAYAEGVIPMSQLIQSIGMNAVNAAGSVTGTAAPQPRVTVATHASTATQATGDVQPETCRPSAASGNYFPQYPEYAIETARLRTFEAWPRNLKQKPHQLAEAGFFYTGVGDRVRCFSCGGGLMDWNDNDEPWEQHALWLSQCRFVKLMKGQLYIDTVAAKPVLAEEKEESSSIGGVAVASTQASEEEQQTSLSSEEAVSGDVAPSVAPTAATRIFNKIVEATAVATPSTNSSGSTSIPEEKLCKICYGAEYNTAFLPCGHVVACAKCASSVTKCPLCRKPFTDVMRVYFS

HA3x-tagged DIAP2 = molecular target: T2, HA3x-tagged DIAP2 (UniProt Q24307)
T2 sequence: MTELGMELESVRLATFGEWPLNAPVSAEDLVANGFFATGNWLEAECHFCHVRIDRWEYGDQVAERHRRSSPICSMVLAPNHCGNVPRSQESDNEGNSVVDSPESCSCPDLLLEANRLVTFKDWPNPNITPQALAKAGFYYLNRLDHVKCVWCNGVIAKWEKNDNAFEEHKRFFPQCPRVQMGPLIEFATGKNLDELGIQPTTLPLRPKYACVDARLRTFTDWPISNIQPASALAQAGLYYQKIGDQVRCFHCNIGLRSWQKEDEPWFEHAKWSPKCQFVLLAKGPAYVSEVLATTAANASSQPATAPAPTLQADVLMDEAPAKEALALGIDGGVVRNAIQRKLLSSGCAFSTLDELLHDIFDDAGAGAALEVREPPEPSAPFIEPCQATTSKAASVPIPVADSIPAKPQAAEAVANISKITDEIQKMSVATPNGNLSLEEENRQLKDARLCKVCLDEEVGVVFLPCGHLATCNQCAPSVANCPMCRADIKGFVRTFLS

[1] = molecular target: T3, HA3x-tagged DRONC (Drosophila) (UniProt Q9XYF4)
T3 sequence: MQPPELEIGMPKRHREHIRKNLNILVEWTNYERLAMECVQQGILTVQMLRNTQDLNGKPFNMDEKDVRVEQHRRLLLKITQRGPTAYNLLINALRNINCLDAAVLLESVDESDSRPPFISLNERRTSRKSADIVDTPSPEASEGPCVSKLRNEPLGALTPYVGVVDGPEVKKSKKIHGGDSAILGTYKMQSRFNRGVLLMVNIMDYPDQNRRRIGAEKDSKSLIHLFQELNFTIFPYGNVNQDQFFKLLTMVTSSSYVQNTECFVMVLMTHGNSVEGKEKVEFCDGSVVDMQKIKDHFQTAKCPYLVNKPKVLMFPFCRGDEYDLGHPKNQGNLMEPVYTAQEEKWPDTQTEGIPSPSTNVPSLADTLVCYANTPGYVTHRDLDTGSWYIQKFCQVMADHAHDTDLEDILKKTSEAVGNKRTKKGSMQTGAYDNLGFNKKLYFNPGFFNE

HA3x-tagged KENNY = molecular target: T4, HA3x-tagged KENNY (UniProt Q9GYV5)
T4 sequence: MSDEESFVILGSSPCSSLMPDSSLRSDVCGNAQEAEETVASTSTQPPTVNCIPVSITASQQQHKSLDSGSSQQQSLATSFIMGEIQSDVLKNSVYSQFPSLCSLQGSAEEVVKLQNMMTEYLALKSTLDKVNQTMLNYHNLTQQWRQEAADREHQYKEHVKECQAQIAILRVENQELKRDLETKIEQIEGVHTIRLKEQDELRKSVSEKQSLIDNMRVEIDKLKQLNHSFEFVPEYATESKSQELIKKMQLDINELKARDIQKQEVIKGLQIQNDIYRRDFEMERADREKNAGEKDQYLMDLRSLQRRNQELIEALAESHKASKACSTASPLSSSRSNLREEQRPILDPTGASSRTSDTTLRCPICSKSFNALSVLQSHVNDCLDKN

HA3x-tagged dTAK1 = molecular target: T5, HA3x-tagged dTAK1 (UniProt Q9V3Q6)
T5 sequence: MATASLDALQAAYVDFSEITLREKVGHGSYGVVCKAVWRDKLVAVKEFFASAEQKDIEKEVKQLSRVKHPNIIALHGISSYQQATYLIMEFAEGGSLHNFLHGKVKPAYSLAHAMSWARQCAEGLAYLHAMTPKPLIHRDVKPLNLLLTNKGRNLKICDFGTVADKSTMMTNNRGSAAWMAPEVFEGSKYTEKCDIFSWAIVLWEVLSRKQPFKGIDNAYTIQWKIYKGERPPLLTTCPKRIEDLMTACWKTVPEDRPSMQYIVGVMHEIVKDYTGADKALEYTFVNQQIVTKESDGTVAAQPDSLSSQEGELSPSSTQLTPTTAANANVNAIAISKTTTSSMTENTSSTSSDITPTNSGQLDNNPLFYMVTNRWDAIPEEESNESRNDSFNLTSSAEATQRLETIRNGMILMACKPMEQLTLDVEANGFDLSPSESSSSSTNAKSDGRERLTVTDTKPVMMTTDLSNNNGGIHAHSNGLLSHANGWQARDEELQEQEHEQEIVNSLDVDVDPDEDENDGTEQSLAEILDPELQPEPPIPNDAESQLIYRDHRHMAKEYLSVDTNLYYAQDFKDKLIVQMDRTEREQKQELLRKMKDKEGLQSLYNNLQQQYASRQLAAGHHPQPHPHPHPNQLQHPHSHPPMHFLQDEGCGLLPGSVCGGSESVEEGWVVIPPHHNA

binding (HA3x-tagged DIAP1): no binding | binding (HA3x-tagged DIAP2): no binding | binding [1]: binds | binding (HA3x-tagged KENNY): no binding | binding (HA3x-tagged dTAK1): no binding
Sequence: CRINKLED (CK), endogenous in S2 cells (from UniProt Q9V3Z6 1-2167)

Results are given in words; binding and its absence hold for the method and conditions named. Binding seen in cells or lysates may run through a third protein. These calls come from enrichment with a bait or labelling near it, and not all partners need be listed. For some assays here: A no says only that the protein was not detected with the bait. Where a sequence is shown, tags or fusion partners need not be part of it.
